PubChem BioAssay AID686938, Drosophila RNAi Screening Center – 2013
The deposit covers about 23,000 reagents; this is an unselected part of those that have a named target and a result. In the full data, 75 (0.33%) were called active. 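Raw plate signals without normalisation; calls rest on plate z-scores that were not deposited; ratio present for only 364 wells.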 Names joined by + are all predicted targets of the reagent. No sequences are given here. The record does not give: the dose of the treatment.

Assay: 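Looking for CRAC channel components and the factors controlling them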 (primary screen)
Cells: Drosophila S2R+ cells
Reagents: long dsRNA against Drosophila genes, about 0.25 µg dsRNA per well, roughly 10,000 cells
Duration: 5 days of knock-down before the calcium assay
Conditions: thapsigargin (SERCA pump blocker) to empty calcium stores; entry signal taken 4 min after adding it
Measurement: 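Per-well fluo-4 fluorescence in two replicates, unnormalised, measured in resting cells and 4 min after store depletion by the SERCA blocker thapsigargin; ratio of the two present in few wells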
Reading the numbers: calcium entry signal: higher = stronger calcium signal after store depletion; entry to resting ratio: higher = more calcium entry relative to resting level; resting calcium signal: higher = higher resting calcium signal
Units: calcium entry signal in fluorescence units; resting calcium signal in fluorescence units
Active means: 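Hit if the duplicate-averaged plate z-score for entry over resting signal is under −3; wells with weak total dye signal (Fmax z < −2) or more than 5 off-targets removed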
Meaning of the calls: active = strongly reduced calcium entry; inactive = no strong reduction

Against CG5968 [DRSC02916] the deposit lists calcium entry signal, replicate 1 = 5.49e7; calcium entry signal, replicate 2 = 3.19e7; resting calcium signal, replicate 1 = 2.32e7; resting calcium signal, replicate 2 = 1.66e7; inactive.
Knock-down of CG3740 [DRSC18508] resulted in: calcium entry signal, replicate 1 = 3.46e7; calcium entry signal, replicate 2 = 5.07e7; entry to resting ratio 2; resting calcium signal, replicate 1 = 1.71e7; resting calcium signal, replicate 2 = 2.03e7; inactive.
Against crc (cryptocephal) [DRSC03513], the values are calcium entry signal, replicate 1 = 3.60e7; calcium entry signal, replicate 2 = 4.66e7; resting calcium signal, replicate 1 = 2.04e7; resting calcium signal, replicate 2 = 2.48e7; inactive.
With knock-down of blp (black pearl) [DRSC15757], the record shows calcium entry signal, replicate 1 = 3.09e7; calcium entry signal, replicate 2 = 2.40e7; resting calcium signal, replicate 1 = 1.42e7; resting calcium signal, replicate 2 = 6.22e7; inactive.
Against chm (chameau) [DRSC03341], the entry reads calcium entry signal, replicate 1 = 4.39e7; resting calcium signal, replicate 1 = 2.30e7; inactive.
lncRNA:sphinx + ATPsynF [DRSC17191] showed calcium entry signal, replicate 1 = 2.20e7; calcium entry signal, replicate 2 = 4.15e7; resting calcium signal, replicate 1 = 1.82e7; resting calcium signal, replicate 2 = 1.63e7; inactive.
For Dlic (Dynein light intermediate chain) [DRSC19824], the values are calcium entry signal, replicate 1 = 2.78e7; calcium entry signal, replicate 2 = 3.43e7; resting calcium signal, replicate 1 = 1.33e7; resting calcium signal, replicate 2 = 1.58e7; inactive.
CG3091 [DRSC18274] gave calcium entry signal, replicate 1 = 4.18e7; calcium entry signal, replicate 2 = 4.19e7; entry to resting ratio 2.2; resting calcium signal, replicate 1 = 1.93e7; resting calcium signal, replicate 2 = 2.05e7; inactive.
With knock-down of Got2 (Glutamate oxaloacetate transaminase 2) [DRSC00643], the record shows calcium entry signal, replicate 1 = 9.08e7; resting calcium signal, replicate 1 = 2.39e7; inactive.
Silencing of CG7810 [DRSC03072] gave: calcium entry signal, replicate 1 = 4.79e7; resting calcium signal, replicate 1 = 2.55e7; inactive.
For CG5883 [DRSC10552], the values are calcium entry signal, replicate 1 = 3.04e7; calcium entry signal, replicate 2 = 4.04e7; resting calcium signal, replicate 1 = 1.61e7; resting calcium signal, replicate 2 = 1.77e7; inactive.
With knock-down of Afti (Aftiphilin) [DRSC16440] the results were calcium entry signal, replicate 1 = 3.05e7; calcium entry signal, replicate 2 = 2.95e7; resting calcium signal, replicate 1 = 1.41e7; resting calcium signal, replicate 2 = 1.36e7; inactive.
For CG10750 [DRSC02105], the values are calcium entry signal, replicate 1 = 4.09e7; resting calcium signal, replicate 1 = 2.02e7; inactive.
Depletion of Uba5 (Ubiquitin-like activating enzyme 5) [DRSC19775] resulted in: calcium entry signal, replicate 1 = 3.47e7; calcium entry signal, replicate 2 = 5.48e7; resting calcium signal, replicate 1 = 1.69e7; resting calcium signal, replicate 2 = 2.53e7; inactive.
With knock-down of Alg11 (ALG11, alpha-1,2-mannosyltransferase) [DRSC11647] the results were calcium entry signal, replicate 1 = 2.00e7; calcium entry signal, replicate 2 = 2.66e7; resting calcium signal, replicate 1 = 9.17e6; resting calcium signal, replicate 2 = 1.86e7; inactive.
With knock-down of CG18586 [DRSC10325] the results were calcium entry signal, replicate 1 = 3.59e7; calcium entry signal, replicate 2 = 3.77e7; resting calcium signal, replicate 1 = 1.67e7; resting calcium signal, replicate 2 = 1.62e7; inactive.
aust (australin) [DRSC02558] gave calcium entry signal, replicate 1 = 2.75e7; calcium entry signal, replicate 2 = 4.51e7; resting calcium signal, replicate 1 = 1.38e7; resting calcium signal, replicate 2 = 2.04e7; inactive.
kirre (kin of irre) [DRSC18785] showed calcium entry signal, replicate 1 = 3.92e7; calcium entry signal, replicate 2 = 5.73e7; entry to resting ratio 2; resting calcium signal, replicate 1 = 1.95e7; resting calcium signal, replicate 2 = 2.37e7; inactive.
For Tmhs (Tetraspan membrane protein in hair cell stereocilia) [DRSC08231] the deposit lists calcium entry signal, replicate 1 = 4.63e7; calcium entry signal, replicate 2 = 4.37e7; resting calcium signal, replicate 1 = 2.07e7; resting calcium signal, replicate 2 = 1.97e7; inactive.
With knock-down of CG11113 [DRSC06039], the record shows calcium entry signal, replicate 1 = 3.76e7; calcium entry signal, replicate 2 = 3.44e7; resting calcium signal, replicate 1 = 1.65e7; resting calcium signal, replicate 2 = 1.48e7; inactive.
For CG12231 [DRSC19445] the deposit lists calcium entry signal, replicate 1 = 4.65e7; calcium entry signal, replicate 2 = 4.22e7; resting calcium signal, replicate 1 = 2.36e7; resting calcium signal, replicate 2 = 1.93e7; inactive.
